{"source": "patent EP0267996A1", "about": "“New nucleotide derivatives” (TAMIR BIOTECHNOLOGY LTD., priority 1986, dated 1988)", "target": "antibodies produced by hybridoma clones from rats immunized with testosterone O-(carboxymethyl)oxime-BSA", "experiment": "Affinity of the hybridoma antibodies for testosterone (general statement)", "assay_type": "binding, rat", "settings": "all of the antibodies obtained", "note": "At least one read-out could not be matched to a standard name with certainty."}
{"molecule": "C[C@]12CC[C@H]3[C@@H](CCC4=CC(=O)CC[C@@]43C)[C@@H]1CC[C@@H]2O", "note": "[Testosterone]", "values": [{"measurement": "Ka", "value": "10¹⁰ /mol"}]}
